These results are taken from patent US20140242068A1 (EMORY UNIVERSITY, published 2014).

These are yes or no findings as the source states them, for the method shown. Some binding calls cover weakened binding; strength is not graded here. For some assays here: Where a sequence is shown, tags or fusion partners need not be part of it.

The target of assay [1] is T1, CAR on cells (CHO-CAR; epithelial CAR of T84 and Caco-2 cells) (human), P78310.
T1 chain: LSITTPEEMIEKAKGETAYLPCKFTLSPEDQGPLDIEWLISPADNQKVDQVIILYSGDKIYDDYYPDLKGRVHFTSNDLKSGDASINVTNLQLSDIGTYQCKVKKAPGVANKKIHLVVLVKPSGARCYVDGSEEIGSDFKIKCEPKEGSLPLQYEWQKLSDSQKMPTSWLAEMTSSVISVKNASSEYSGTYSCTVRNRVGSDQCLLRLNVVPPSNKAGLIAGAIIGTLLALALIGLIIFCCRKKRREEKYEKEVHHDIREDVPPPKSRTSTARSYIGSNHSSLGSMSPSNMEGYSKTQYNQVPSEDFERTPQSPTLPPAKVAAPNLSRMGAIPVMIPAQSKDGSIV
The assay can be described thus: aggregation of CHO-CAR cells alone. The conditions noted are these: remark: other sources report otherwise.

For assay [2], the target named is T2, murine CAR (epithelial CAR of wounded mouse colon) (mouse) (UniProt P97792).
T2 sequence (looked up): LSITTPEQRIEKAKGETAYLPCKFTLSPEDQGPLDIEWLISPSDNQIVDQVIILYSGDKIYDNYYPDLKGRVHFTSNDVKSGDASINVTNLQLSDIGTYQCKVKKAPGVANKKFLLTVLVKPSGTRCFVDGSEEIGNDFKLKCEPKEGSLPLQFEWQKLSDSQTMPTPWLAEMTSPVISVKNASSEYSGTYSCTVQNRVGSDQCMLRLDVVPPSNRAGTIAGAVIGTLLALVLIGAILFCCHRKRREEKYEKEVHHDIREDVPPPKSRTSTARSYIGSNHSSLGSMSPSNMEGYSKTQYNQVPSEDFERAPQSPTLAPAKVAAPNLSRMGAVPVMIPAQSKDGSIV
The assay can be described thus: immunofluorescence of wounded mouse colon after I.P. dosing (colocalization of CAR and His tag).

B1: CAR on cells (CHO-CAR; epithelial CAR of T84 and Caco-2 cells), P78310 20-365 (receptor, human, UniProt P78310 20-365, looked up)
chain: LSITTPEEMIEKAKGETAYLPCKFTLSPEDQGPLDIEWLISPADNQKVDQVIILYSGDKIYDDYYPDLKGRVHFTSNDLKSGDASINVTNLQLSDIGTYQCKVKKAPGVANKKIHLVVLVKPSGARCYVDGSEEIGSDFKIKCEPKEGSLPLQYEWQKLSDSQKMPTSWLAEMTSSVISVKNASSEYSGTYSCTVRNRVGSDQCLLRLNVVPPSNKAGLIAGAIIGTLLALALIGLIIFCCRKKRREEKYEKEVHHDIREDVPPPKSRTSTARSYIGSNHSSLGSMSPSNMEGYSKTQYNQVPSEDFERTPQSPTLPPAKVAAPNLSRMGAIPVMIPAQSKDGSIV
B1: in assay [1], the binding result was “no binding”.

B2: adenoviral fiber knob protein Ad5, his-tagged (ligand)
chain: GAITVGNKNNDKLTLWTTPAPSPNCRLNAEKDAKLTLVLTKCGSQILATVSVLAVKGSLAPISGTVQSAHLIIRFDENGVLLNNSFLDPEYWNFRNGDLTEGTAYTNAVGFMPNLSAYPKSHGKTAKSNIVSQVYLNGDKTKPVTLTITLNGTQETGDTTPSAYSMSFSWDWSGHNYINEIFATSSYTFSYIAQE
As to B2, the binding result in assay [2] was “binds”.
